The record followed here is publication PMC9856783, “Identification and Characterization of Aptamers Targeting Ovarian Cancer Biomarker Human Epididymis Protein 4 for the Application in Urine”.

In this data set the target is T1, Human epididymis protein 4 (HE4) (human) (UniProt Q14508).
T1 sequence (looked up, limits assumed): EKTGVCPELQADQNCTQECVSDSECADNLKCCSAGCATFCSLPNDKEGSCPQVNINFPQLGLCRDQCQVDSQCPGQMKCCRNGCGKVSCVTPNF
Briefly: thermofluorimetric analysis (SYBR Gold). The note with it: 1/125 artificial urine, 100 nM DNA, 0-800 nM HE4, 1/125 diluted artificial urine, 1x SYBR Gold, protein buffer, protein details: 6xHis, label: SYBR Gold dye (non-covalent), single-stranded DNA. (In general: In DSF a fluorescence change marks the thermal transition of the protein.)

For at least one entry, the source does not settle the construct or the ends of the probe. Where a protein sequence is shown, tags need not be part of it.

Broadly, the Kd is a measure of binding affinity in units of concentration. A high value points to weaker binding.

The sequence “TCGCACATTCCGCTTCTACCCATCAATCAGCATACCCACCATGTACGTCCCGTAAGTCCGTGTGTGCGAA [AHE3]” returned a Kd (Discussion prints error as 3, commercial …) of 127 nM.

Regarding “TCGCACATTCCGCTTCTACCCCCAACCAACGTCTATACTTCCCCAACCTCCGTAAGTCCGTGTGTGCGAA [AHE1]”, the Kd (commercial protein) is 87 nM.
